Values from PubChem BioAssay AID1508597 (Cure First, 2020)

- Purpose: 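Knock-downs altering ovarian cancer cell survival with or without PARP inhibitor rucaparib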 (primary screen)
- Cells: human ovarian carcinoma lines grown from tumours: OCI-P5x (papillary serous) and OCI-C5x (clear cell)
- Reagent: siRNA pool against human genes, 1.25 pmol siRNA per well
- Time to read-out: 72 h or 96 h, depending on the cell culture
- Conditions: rucaparib 20 µM (about IC30) or vehicle, present until read-out
- Rucaparib or vehicle: Vehicle
- Cell line: OCI-P5x (serous)
- Measurement: 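Luminescent ATP-based viability assay read 72 or 96 h after transfection, depending on culture, given as normalised percent viability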
- Direction: viability, normalised: higher = more viable cells remaining
- Active means: 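Active when normalised viability falls below 80 percent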
- Calls: active = viability under 80%; inactive = viability 80% or more
This is an unselected part of the about 2,100 reagents, in one setting of the screen. 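Calls flag viability under 80% in either arm, not effects specific to rucaparib; the reference for percent is not stated.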 A reagent listed more than once was tested more than once; the source does not tell the runs apart. The record does not give: the 100% reference.

| gene knocked down | technical replicate | viability, normalised (%) | outcome |
| --- | --- | --- | --- |
| PHF21A | 1 | 48.1 | active |
| PHF21A | 2 | 57.2 | active |
| PHF21A | 3 | 70.6 | active |
| GAD1 | 1 | 55.7 | active |
| GAD1 | 2 | 67.3 | active |
| GAD1 | 3 | 71 | active |
| MAST1 | 1 | 83.1 | inactive |
| MAST1 | 2 | 68.8 | active |
| MAST1 | 3 | 74.4 | active |
| COPRS | 1 | 62.5 | active |
| COPRS | 2 | 93.7 | inactive |
| COPRS | 3 | 132 | inactive |
| CDK2 | 1 | 53.1 | active |
| CDK2 | 1 | 93.1 | inactive |
| CDK2 | 2 | 66.8 | active |
| CDK2 | 2 | 86.6 | inactive |
| CDK2 | 3 | 60 | active |
| CDK2 | 3 | 83 | inactive |
| PDE11A | 1 | 72.3 | active |
| PDE11A | 2 | 75.8 | active |
| PDE11A | 3 | 78.9 | active |
| TBL1Y | 1 | 62.1 | active |
| TBL1Y | 2 | 68 | active |
| TBL1Y | 3 | 89.1 | inactive |

Continued, starting with the last 4 of the part before.
| gene knocked down | technical replicate | viability, normalised (%) | outcome |
| --- | --- | --- | --- |
| PDE11A | 3 | 78.9 | active |
| TBL1Y | 1 | 62.1 | active |
| TBL1Y | 2 | 68 | active |
| TBL1Y | 3 | 89.1 | inactive |
| MED14 | 1 | 58.5 | active |
| MED14 | 2 | 56.8 | active |
| MED14 | 3 | 69.3 | active |
| RCBTB1 | 1 | 72.9 | active |
| RCBTB1 | 2 | 73.5 | active |
| RCBTB1 | 3 | 79.8 | active |
| TDRD7 | 1 | 57.3 | active |
| TDRD7 | 2 | 82.6 | inactive |
| TDRD7 | 3 | 91.5 | inactive |
| PRMT5 | 1 | 60.2 | active |
| PRMT5 | 2 | 64.3 | active |
| PRMT5 | 3 | 75.2 | active |
| CLDN15 | 1 | 83.6 | inactive |
| CLDN15 | 2 | 81.2 | inactive |
| CLDN15 | 3 | 83.9 | inactive |
| CLDN20 | 1 | 77.9 | active |
| CLDN20 | 2 | 60.8 | active |
| CLDN20 | 3 | 72 | active |
| TOP1 | 1 | 70 | active |
| TOP1 | 2 | 77.8 | active |
| TOP1 | 3 | 52.8 | active |
| MIER1 | 1 | 58.1 | active |
| MIER1 | 2 | 70.1 | active |
| MIER1 | 3 | 66.1 | active |
| BAP1 | 1 | 67.8 | active |
| BAP1 | 1 | 69.1 | active |
| BAP1 | 2 | 80 | active |
| BAP1 | 2 | 76.2 | active |
| BAP1 | 3 | 68.7 | active |
| BAP1 | 3 | 65.4 | active |
| PHF7 | 1 | 71.8 | active |
| PHF7 | 2 | 53.5 | active |
| PHF7 | 3 | 140 | inactive |
